Data: patent US7576097B2, “Tropane derivatives useful in therapy” (Pfizer, Inc., priority 2000, dated 2009)
Some results were stated once for a whole list of compounds, not compound by compound.

Chains of the proteins cited; added tags and fusions are not shown.
UniProt P51681, whole entry: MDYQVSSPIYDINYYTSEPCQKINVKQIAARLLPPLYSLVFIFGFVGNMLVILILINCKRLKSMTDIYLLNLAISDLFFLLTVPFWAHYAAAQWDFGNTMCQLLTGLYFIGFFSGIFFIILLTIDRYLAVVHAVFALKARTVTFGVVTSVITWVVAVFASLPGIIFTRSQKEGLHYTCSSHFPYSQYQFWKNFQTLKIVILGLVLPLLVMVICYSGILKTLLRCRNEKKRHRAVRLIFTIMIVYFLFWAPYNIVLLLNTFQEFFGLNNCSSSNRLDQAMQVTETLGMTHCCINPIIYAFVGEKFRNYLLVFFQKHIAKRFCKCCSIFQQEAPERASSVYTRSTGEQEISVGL

Biological target: CCR5 (Homo sapiens, UniProt P51681)
Test: assay for CCR5 binding (procedures of Combadiere et al.)
Settings: CCR5 binding assay following Combadiere et al., J. Leukoc. Biol. 60, 147-52 (1996)

| SMILES | IC50 [nM] |
| --- | --- |
| Cc1nnc(C(C)C)n1C1CC2CCC(C1)N2CC[C@H](NC(=O)C1CCCC1)c1ccccc1 (stereo partly drawn) [Example 2, N-{(1S)-3-[3-(3-Isopropyl-5-methyl-4H-1,2,4-triazol-4-yl)-exo-8-azabicyclo[3.2.1]oct-8-yl]-1-phenylpropyl}-cyclopentanecarboxamide] | < 10 |
| Cc1nnc(C(C)C)n1C1CC2CCC(C1)N2CC[C@H](NC(=O)CCC(F)(F)F)c1ccccc1 (stereo partly drawn) [Example 3, N-{(1S)-3-[3-(3-Isopropyl-5-methyl-4H-1,2,4-triazol-4-yl)-exo-8-azabicyclo[3.2.1]oct-8-yl]-1-phenylpropyl}-4,4,4-trifluorobutanamide] | < 10 |
| Cc1nnc(C(C)C)n1C1CC2CCC(C1)N2CC[C@H](NC(=O)C1CCC(F)(F)CC1)c1cccc(F)c1 (stereo partly drawn) [Example 5, N-{(1S)-3-[3-(3-Isopropyl-5-methyl-4H-1,2,4-triazol-4-yl)-exo-8-azabicyclo[3.2.1]oct-8-yl]-1-(3-fluorophenyl)propyl}-4,4-difluorocyclohexanecarboxamide] | < 10 |
| Cc1nnc(C(C)C)n1C1CC2CCC(C1)N2CC[C@H](NC(=O)C1CCC1)c1ccccc1 (stereo partly drawn) [Example 1, N-{(1S)-3-[3-(3-Isopropyl-5-methyl-4H-1,2,4-triazol-4-yl)-exo-8-azabicyclo[3.2.1]oct-8-yl]-1-phenylpropyl}cyclobutanecarboxamide] | < 10 |
